In paper PMC11707362, “Endothelial-secreted Endocan activates PDGFRA and regulates vascularity and spatial phenotype in glioblastoma” (Nature Communications, 2025):
These are yes or no findings as the source states them, for the method shown. Some entries that bind do so weakly or less than the wild type.

Amino acid sequences for entries named in this document (tags omitted). Residues count along the entry.
UniProt P16234, residues 24-1089: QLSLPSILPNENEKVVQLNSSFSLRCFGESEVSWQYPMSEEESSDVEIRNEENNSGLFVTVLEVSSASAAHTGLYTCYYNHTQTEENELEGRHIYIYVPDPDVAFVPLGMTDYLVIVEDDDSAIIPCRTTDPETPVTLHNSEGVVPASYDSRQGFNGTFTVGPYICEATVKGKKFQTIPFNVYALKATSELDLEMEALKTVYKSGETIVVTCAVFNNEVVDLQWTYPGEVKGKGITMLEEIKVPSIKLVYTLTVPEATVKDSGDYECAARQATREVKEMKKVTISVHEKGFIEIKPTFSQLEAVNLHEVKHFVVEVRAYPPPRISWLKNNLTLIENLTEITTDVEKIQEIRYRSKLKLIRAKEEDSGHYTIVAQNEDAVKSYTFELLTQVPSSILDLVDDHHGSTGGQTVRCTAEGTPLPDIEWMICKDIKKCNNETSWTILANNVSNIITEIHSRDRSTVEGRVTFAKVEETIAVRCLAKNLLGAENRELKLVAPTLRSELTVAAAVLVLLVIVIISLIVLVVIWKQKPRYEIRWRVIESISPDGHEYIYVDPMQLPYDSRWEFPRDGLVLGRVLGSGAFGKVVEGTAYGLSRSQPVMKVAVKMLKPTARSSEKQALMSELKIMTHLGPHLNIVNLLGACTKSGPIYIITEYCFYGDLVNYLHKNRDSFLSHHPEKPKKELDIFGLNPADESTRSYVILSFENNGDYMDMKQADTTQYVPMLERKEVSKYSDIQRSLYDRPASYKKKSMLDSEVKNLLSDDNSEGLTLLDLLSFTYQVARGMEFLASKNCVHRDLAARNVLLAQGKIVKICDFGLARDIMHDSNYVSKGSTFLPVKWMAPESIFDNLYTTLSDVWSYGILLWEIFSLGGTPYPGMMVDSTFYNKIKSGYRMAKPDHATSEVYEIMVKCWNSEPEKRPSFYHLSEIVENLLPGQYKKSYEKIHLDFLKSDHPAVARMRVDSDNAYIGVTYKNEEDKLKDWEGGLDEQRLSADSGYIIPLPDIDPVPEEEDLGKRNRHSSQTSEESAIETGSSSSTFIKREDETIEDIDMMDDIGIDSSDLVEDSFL

Molecular target: PDGFRA, endogenous, on 1079 glioblastoma cells (human (endogenous in 1079 glioblastoma cells)) (UniProt P16234)
Experiment: flow cytometry on cells; competition binding: 1079 cells incubated with indicated concentrations of Endocan-Alexa488 and PDGF-BB-Alexa647 for 30 min on ice, washed twice with PBS; only the binder purified

B1: rEndocan labeled with Alexa488 (ligand, UniProt Q9NQ30 20-184)
chain: WSNNYAVDCPQHCDSSECKSSPRCKRTVLDDCGCCRVCAAGRGETCYRTVSGMDGMKCGPGLRCQPSNGEDPFGEEFGICKDCPYGTFGMDCRETCNCQSGICDRGTGKCLKFPFFQYSVTKSSNRFVSLTEHDMASGDGNIVREEVVKENAAGSPVMRKWLNPR
modifications: Alexa Fluor 488 label
Q: Which binding does the source give for B1 here?
A: binds
